From US20070161060A1 (published 2007)
Results are given in words; binding and its absence hold for the method and conditions named. Binding seen in cells or lysates may run through a third protein. Some binding calls cover weakened binding; strength is not graded here.

Amino acid sequences for entries named in this document (tags omitted). A change or cut given only in a name is not applied to a line headed by its entry. Chains listed by the source or under a name are the forms on record and can include a tag or linker. Residues count along the entry.
c-Myc-tagged monomeric E-cadherin C-terminus (P12830, residues 731-882): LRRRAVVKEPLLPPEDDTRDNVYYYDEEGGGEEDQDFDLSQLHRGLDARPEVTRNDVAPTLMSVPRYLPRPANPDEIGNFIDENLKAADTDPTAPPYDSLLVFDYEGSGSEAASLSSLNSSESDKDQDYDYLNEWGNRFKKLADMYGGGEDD
c-Myc-tagged dimeric E-cadherin C-terminus (Myc-HR-ECDT) (P12830, form named): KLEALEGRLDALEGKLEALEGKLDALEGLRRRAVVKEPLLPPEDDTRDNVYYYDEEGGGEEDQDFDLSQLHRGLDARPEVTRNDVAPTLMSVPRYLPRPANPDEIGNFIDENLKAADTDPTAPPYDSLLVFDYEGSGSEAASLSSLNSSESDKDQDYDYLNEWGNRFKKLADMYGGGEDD
UniProt P35222, residues 2-781: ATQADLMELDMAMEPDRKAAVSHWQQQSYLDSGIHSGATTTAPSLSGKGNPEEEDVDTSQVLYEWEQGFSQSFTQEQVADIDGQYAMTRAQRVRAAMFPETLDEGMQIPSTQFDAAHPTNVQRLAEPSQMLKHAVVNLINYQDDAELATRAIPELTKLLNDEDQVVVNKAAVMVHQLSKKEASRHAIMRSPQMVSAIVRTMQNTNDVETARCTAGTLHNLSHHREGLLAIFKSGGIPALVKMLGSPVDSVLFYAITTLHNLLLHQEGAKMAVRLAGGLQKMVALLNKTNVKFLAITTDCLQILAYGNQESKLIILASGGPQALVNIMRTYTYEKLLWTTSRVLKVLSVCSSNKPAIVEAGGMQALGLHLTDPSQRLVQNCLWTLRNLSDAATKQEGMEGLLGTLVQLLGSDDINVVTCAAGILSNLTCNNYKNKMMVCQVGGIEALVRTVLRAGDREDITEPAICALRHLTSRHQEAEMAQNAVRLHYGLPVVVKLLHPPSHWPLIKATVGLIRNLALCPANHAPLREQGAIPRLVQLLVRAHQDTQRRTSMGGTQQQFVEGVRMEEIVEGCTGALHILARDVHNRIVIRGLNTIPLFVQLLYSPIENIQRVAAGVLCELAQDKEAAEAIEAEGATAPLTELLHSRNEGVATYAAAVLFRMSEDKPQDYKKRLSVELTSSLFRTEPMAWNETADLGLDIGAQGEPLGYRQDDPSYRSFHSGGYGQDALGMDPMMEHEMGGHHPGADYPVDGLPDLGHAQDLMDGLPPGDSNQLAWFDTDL

What was measured:
[1] = biological target: c-Myc-tagged monomeric E-cadherin C-terminus (UniProt P12830); test: co-IP from HEK293 cells
[2] = biological target: c-Myc-tagged dimeric E-cadherin C-terminus (Myc-HR-ECDT) (UniProt P12830); test: co-IP from HEK293 cells
p120-catenin = biological target: T1, p120-catenin (UniProt O60716); test: co-IP from HEK293 cells; the monomer is the weaker reference
T1 sequence (looked up): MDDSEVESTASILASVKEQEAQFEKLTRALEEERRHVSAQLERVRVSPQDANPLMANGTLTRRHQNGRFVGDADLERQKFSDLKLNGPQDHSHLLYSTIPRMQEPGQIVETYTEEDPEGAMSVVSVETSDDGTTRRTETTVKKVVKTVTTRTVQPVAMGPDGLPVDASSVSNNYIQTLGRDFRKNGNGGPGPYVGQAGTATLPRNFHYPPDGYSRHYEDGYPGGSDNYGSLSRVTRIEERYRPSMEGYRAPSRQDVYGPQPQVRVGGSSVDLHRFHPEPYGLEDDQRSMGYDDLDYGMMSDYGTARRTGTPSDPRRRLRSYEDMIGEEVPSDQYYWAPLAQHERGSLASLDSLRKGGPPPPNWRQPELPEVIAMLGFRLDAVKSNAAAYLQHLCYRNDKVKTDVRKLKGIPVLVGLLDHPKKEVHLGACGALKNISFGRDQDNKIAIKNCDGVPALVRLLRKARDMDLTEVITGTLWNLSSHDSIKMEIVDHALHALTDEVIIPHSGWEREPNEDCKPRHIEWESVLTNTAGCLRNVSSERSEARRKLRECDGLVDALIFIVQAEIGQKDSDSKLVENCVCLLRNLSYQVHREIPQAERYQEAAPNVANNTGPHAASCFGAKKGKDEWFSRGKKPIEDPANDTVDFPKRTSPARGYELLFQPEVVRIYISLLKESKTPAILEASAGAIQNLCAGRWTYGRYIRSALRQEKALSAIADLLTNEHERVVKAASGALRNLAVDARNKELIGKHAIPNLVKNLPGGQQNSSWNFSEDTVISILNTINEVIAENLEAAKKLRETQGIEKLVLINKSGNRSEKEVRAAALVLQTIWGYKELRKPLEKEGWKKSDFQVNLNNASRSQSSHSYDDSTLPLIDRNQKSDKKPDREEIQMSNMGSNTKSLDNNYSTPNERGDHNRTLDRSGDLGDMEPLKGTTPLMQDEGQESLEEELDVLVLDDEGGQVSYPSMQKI

binding [1] | binding [2] | binding (p120-catenin) | Substance
binds | binds | – | β-catenin (from UniProt P35222 2-781)
– | – | binds | c-Myc-tagged monomeric E-cadherin C-terminus (from UniProt P12830 731-882)
